Assay results taken from the supplement of paper PMC7877785.
± gives the uncertainty stated by the source. The uncertainty is large for many entries.

Assay: self-splicing fitness, log relative to wild type (ln ratio); higher = more splicing; Tetrahymena group I intron in knt gene, E. coli kanamycin selection, DiMSum; sequences stand for … in CUCUCU…GGAGGGAAAAGUUAUCAGGCAUGCACCUGGUAGCUAGUCUUUAAACCAAUAGAUUGCAUCGGUUUAAAAGGCAAGACCGUCAAAUUGCGGGAAAGGGGUCAACAGCCGUUCAGUACCAAGUCUCAGGGGAAACUUUGAGAUGGCCUUGCAAAGGGUAUGGUAAUAAGCUGACGGACAUGGUCCUAACCACGCAGCCAAGUCCUAAGUCAACAGAUCUUCUGUUGAUAUGGAUGCAGUUCACAGACUAAAUGUCGGUCGGGGAAGAUGUAUUCUUCUCAUAAGAUAUAGUCGGACCUCUCCUUAAUGGGAGCUAGCGGAUGAAGUGAUGCAACACUGGAGCCGCUGGGAACUAAUUUGUAUGCGAAAGUAUAUUGAUUAGUUUUGGAGUACUCGUGGUCG
In short: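 Pooled colonies went to amplicon sequencing on an Illumina HiSeq 2500 after six replicate transformations. The plates were LB agar with 100 μg/mL carbenicillin, 50 μM IPTG and 0.2% rhamnose, with or without 25 μg/mL kanamycin, incubated overnight at 37°C or 30°C. The E. coli BL21(DE3) library had all eight P1ex-region intron nucleotides randomised, the intron placed in the knt kanamycin-resistance gene on pET-22b(+). DiMSum fitness is the error-weighted combination of replicate fold changes, kanamycin against none, normalised to wild type.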

Sequence | self-splicing fitness (ln) (30 °C) | self-splicing fitness (ln) (37 °C)
GUGUAGCAAUAUUACGUCAC | -2.41 ± 0.5 | -2.39 ± 1.1
UCUCAGCAAUAUUACGACCC | -4.29 ± 1.1 | 
CAGGAGCAAUAUUACGUGAC |  | -2.06 ± 0.65
GGCGAGCAAUAUUACGAAGA | -0.86 ± 0.63 | 
AUUCAGCAAUAUUACGUCAU | -0.863 ± 0.059 | 0.0811 ± 0.071
GGUGAGCAAUAUUACGACCU | -2.12 ± 0.26 | -2.52 ± 0.49
CAGUAGCAAUAUUACGUAGU | -2.5 ± 0.13 | -2.54 ± 0.18
AACAAGCAAUAUUACGGAGC | -4.22 ± 0.3 | -3.65 ± 0.36
UCUUAGCAAUAUUACGCCAG |  | -2.48 ± 0.54
CUGGAGCAAUAUUACGCUGG | -3.91 ± 0.52 | 
UCGGAGCAAUAUUACGACCA | -2.47 ± 0.69 | -1.71 ± 0.51
GUUGAGCAAUAUUACGUACA | -1.4 ± 1.2 | 
GCGGAGCAAUAUUACGUAUA | -3.88 ± 1.1 | 
UAUCAGCAAUAUUACGCUAG | -0.545 ± 0.1 | -0.149 ± 0.12
UUACAGCAAUAUUACGAACC |  | -1.55 ± 0.84
CAUUAGCAAUAUUACGUCGC |  | -2.58 ± 0.54
GUAGAGCAAUAUUACGAACC |  | -1.13 ± 1.2
GCGGAGCAAUAUUACGGGUG | -3.53 ± 0.54 | 
CCGAAGCAAUAUUACGCCGG | -4.5 ± 0.51 | 
UUUUAGCAAUAUUACGAAGC | -3.9 ± 1 | -1.93 ± 0.8
GGAGAGCAAUAUUACGUACC | -1.09 ± 0.68 | 

Copied from the results shown (4 entries):
Sequence | self-splicing fitness (ln) (30 °C) | self-splicing fitness (ln) (37 °C)
GGCGAGCAAUAUUACGAAGA | -0.86 ± 0.63 | 
AUUCAGCAAUAUUACGUCAU | -0.863 ± 0.059 | 0.0811 ± 0.071
GGUGAGCAAUAUUACGACCU | -2.12 ± 0.26 | -2.52 ± 0.49
CAGUAGCAAUAUUACGUAGU | -2.5 ± 0.13 | -2.54 ± 0.18

(cont.)

Sequence | self-splicing fitness (ln) (30 °C) | self-splicing fitness (ln) (37 °C)
UCCGAGCAAUAUUACGCGAG | -4.06 ± 0.61 | 
CGAGAGCAAUAUUACGACGA | -2.65 ± 1.1 | 
GGGCAGCAAUAUUACGUCCC |  | -2.39 ± 1.1
ACGAAGCAAUAUUACGCUUG | -1.4 ± 0.086 | -0.259 ± 0.098
GAGGAGCAAUAUUACGAGAC |  | -3.12 ± 0.6
UGCGAGCAAUAUUACGGCGC |  | -2.21 ± 0.79
UGCGAGCAAUAUUACGCAAC |  | -2.13 ± 0.55
UAGUAGCAAUAUUACGGAGC |  | -2.67 ± 0.62
UUUCAGCAAUAUUACGCAGC | -3.04 ± 0.58 | -2.29 ± 0.78
CGGGAGCAAUAUUACGAUUA | -2.65 ± 1.1 | 
GCGGAGCAAUAUUACGACAC |  | -1.39 ± 0.55
CUCAAGCAAUAUUACGCCUU | -4.27 ± 0.51 | 
CAAGAGCAAUAUUACGCAGU |  | -3.17 ± 0.52
GAAAAGCAAUAUUACGUUGG | -3.55 ± 0.19 | -2.16 ± 0.16
UCCAAGCAAUAUUACGAGAU |  | -4.35 ± 0.59
GUCAAGCAAUAUUACGUGUA | -1.8 ± 0.062 | -0.887 ± 0.072
CGAUAGCAAUAUUACGCACU | -1.12 ± 0.14 | 0.174 ± 0.14
CUUGAGCAAUAUUACGCCUG | -3.62 ± 0.53 | 
CCAAAGCAAUAUUACGCCCC | -3.72 ± 0.6 | 
GGCCAGCAAUAUUACGAGAC | -3.29 ± 0.25 | -2.77 ± 0.28
UACCAGCAAUAUUACGAAGG | -2.22 ± 0.11 | -0.865 ± 0.12

Sequence | self-splicing fitness (ln) (30 °C) | self-splicing fitness (ln) (37 °C)
CGCCAGCAAUAUUACGCCAU | -5.72 ± 0.71 | 
CCAAAGCAAUAUUACGCACC |  | -2.49 ± 0.62
UAGCAGCAAUAUUACGAUGC | -3.13 ± 1 | 
UGAUAGCAAUAUUACGUCUA | 0.0941 ± 0.089 | -0.107 ± 0.094
UGGGAGCAAUAUUACGGGUC | -2.57 ± 0.55 | -0.939 ± 0.5
CCCAAGCAAUAUUACGGUUC | -3.38 ± 0.13 | -2.6 ± 0.18
AUUGAGCAAUAUUACGAUGC |  | -2.43 ± 0.55
GGAAAGCAAUAUUACGAUCC |  | -1.45 ± 0.59
CUUUAGCAAUAUUACGAUGC |  | -2.89 ± 0.53
UCUGAGCAAUAUUACGUAGC | -4.87 ± 1 | 
UGAGAGCAAUAUUACGAUUC | -3.41 ± 0.73 | 
UAUUAGCAAUAUUACGCUAU | -2.85 ± 0.5 | 
AAUGAGCAAUAUUACGCACG |  | -1.5 ± 0.5
AAUUAGCAAUAUUACGCUUA | -0.993 ± 0.12 | 0.247 ± 0.14
AAGUAGCAAUAUUACGGACC | -1.96 ± 0.7 | 
UAUUAGCAAUAUUACGGACC |  | -1.18 ± 0.57
CUGCAGCAAUAUUACGGCAG | -2.63 ± 0.22 | -2.27 ± 0.2
GCGGAGCAAUAUUACGGGGU |  | -2.92 ± 0.61
UACGAGCAAUAUUACGGGGC | -4.15 ± 0.51 | -3.34 ± 0.3
UUAGAGCAAUAUUACGGAUA |  | -2.65 ± 0.63
